Tests used:
WT NP1-3 DRG neurons = assay: GCaMP6s calcium imaging of NP1-3 DRG neurons from Pirt-Cre; Rosa-lsl-GCaMP6s mice; assay type: cell-based, mouse; conditions: 10 µM
[1] = tested on: NP2-X4+ mice (MRGPRX4 in Mrgpra3+ NP2 sensory neurons); assay: Itch behavioral study (scratching bouts after subcutaneous nape injection) in NP2-X4+ mice; assay type: in vivo, mouse; conditions: 50 μl 10 mM nape injection, 30 min

C[C@@H]1C[C@H]2[C@@H]3CCC4=CC(=O)C=C[C@]4(C)[C@@]3(F)[C@@H](O)C[C@]2(C)[C@@]1(O)C(=O)COP(=O)(O)O [Dexamethasone phosphate]
Activation of NP1–3 neuron populations (WT NP1-3 DRG neurons): few neurons were activated | Scratching / itch behavior, NP2-X4+ mice vs WT littermates [1]: significantly increased scratching behavior

— publication PMC11645656, “MRGPRX4 mediates phospho-drug associated pruritus in a humanized mouse model” (Science translational medicine, 2024)
